Data reported in patent US11229628B2, “TRPA1 and TRPV4 inhibitors and methods of using the same for organ-specific inflammation and itch” (Duke University, priority 2015, dated 2022).
Some entries share one result that the patent states for a list of compounds.

Amino acid sequences for entries named in this document (tags omitted).
UniProt O75762, whole entry: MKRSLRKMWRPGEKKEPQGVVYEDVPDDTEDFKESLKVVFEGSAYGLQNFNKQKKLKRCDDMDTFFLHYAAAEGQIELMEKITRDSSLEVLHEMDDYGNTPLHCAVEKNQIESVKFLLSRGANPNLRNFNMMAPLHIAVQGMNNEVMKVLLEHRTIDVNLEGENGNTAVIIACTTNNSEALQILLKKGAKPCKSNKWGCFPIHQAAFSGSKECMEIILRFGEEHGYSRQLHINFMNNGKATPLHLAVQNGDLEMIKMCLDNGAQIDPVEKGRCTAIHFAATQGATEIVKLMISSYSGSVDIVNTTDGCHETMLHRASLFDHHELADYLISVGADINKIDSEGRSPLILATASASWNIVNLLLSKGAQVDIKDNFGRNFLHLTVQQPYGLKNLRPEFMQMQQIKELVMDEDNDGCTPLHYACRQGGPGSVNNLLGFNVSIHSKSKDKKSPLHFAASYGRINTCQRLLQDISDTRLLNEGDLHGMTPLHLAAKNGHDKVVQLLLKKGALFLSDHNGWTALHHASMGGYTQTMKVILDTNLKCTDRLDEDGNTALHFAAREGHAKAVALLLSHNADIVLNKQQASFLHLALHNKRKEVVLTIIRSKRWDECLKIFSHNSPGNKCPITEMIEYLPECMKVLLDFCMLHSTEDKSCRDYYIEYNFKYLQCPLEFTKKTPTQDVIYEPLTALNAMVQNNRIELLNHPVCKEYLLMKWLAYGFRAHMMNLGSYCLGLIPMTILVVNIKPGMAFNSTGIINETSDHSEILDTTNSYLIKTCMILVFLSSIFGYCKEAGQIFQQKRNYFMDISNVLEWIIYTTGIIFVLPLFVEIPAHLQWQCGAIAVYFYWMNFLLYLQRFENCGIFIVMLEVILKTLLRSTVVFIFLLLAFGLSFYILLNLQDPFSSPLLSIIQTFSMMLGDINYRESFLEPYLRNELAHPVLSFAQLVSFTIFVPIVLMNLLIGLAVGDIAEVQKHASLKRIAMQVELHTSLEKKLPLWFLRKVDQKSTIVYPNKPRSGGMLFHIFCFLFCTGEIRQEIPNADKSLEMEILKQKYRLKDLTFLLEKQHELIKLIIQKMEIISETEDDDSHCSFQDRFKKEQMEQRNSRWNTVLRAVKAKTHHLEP

Biological target: T1, human TRPA1 (Homo sapiens, UniProt O75762)
T1 construct: expressed in transfected cells; host or cells: N2a cells
Experiment: Ca2+ transient in N2a cells transfected with human TRPA1, evoked by AITC
Assay type: cell-based
Details: 5 μM compound, 10 min pre-exposure
Method: Compounds were tested for their effect on TRPA1. N2a permanent cells were transfected with human TRPA1 cDNA, using a pcDNA3.1 expression plasmid. They were co-transfected with eGFP-expressing plasmid, or, for control, with eGFP plasmid only.
Cells were then pre-exposed to 5 μM of compounds 16-8 and 16-8/18hy for 10 min.
Averaged Ca2+ signal is shown from >75 cells. The resulting Ca2+ transient evoked by 60 μM AITC was reduced by >80% upon administration of compound 16-8 or 16-8/18hy at 5 μM, indicating appreciable TRPA1-inhibitory effects of both compounds.

Row | Structure (SMILES) | reduction of Ca2+ transient evoked by 60 μM AITC
1 | CN(CCc1ccc(Nc2nc(-c3ccccc3)cs2)cc1)Cc1ccccc1 [Compound 16-8] | > 80%
2 | CCN(CCc1ccc(Nc2nc(-c3ccccc3)cs2)cc1)Cc1ccccc1 [16-8/18hy] | > 80%
